Results are given in words; binding and its absence hold for the method and conditions named.

These results are taken from patent publication US7238711.

This test has as its target T1, Duffy Antigen Receptor for Chemokines (DARC) (human) (UniProt Q16570).
T1 sequence (looked up): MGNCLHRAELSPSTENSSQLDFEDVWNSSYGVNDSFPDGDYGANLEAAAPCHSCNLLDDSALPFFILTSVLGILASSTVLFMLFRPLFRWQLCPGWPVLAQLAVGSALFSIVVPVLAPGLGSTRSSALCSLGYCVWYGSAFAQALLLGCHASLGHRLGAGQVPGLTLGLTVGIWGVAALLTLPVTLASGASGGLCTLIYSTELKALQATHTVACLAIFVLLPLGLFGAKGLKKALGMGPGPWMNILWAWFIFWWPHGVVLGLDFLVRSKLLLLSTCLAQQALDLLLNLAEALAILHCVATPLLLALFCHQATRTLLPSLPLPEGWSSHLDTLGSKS
Nature of the test: DARC binding, Table 18.

B1: CPKEAV (peptide)
peptide: CPKEAV
Consider B1, for which the binding entry was “no binding (tested: >100 µM)”.
